The values below are quoted from earlier work in paper PMC3951241 (Journal of medicinal chemistry, 2013).

Amino acid sequences for entries named in this document (tags omitted). Residues count along the entry.
UniProt P62813, 28-455: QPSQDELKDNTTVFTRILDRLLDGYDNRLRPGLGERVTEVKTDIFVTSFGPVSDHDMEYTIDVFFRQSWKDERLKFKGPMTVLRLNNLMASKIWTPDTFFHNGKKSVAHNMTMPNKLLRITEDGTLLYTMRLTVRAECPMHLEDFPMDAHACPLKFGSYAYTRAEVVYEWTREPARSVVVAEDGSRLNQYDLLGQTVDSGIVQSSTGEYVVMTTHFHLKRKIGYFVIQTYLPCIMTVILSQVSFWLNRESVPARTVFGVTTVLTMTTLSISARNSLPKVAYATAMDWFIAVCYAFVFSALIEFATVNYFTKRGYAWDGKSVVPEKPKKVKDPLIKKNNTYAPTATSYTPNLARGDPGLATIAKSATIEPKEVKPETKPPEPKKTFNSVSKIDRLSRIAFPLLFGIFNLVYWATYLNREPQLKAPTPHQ
UniProt P63138, 26-474: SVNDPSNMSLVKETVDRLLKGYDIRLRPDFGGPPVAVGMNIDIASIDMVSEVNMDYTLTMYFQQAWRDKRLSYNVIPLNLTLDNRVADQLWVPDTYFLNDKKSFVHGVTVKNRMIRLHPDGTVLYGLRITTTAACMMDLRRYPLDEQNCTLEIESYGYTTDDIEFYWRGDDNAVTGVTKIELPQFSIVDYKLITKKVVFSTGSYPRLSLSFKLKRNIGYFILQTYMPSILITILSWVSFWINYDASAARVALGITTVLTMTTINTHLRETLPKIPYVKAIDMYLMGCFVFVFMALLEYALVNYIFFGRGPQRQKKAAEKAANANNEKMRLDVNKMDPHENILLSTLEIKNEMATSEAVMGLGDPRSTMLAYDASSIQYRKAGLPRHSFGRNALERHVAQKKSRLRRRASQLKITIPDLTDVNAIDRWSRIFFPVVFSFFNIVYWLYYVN

For this data set, the target named is rat α1β2γ2L type GABAA receptors expressed in Xenopus laevis oocytes (Rattus norvegicus, UniProt P62813+P63138). The note with it: 1 μM compound, 2 μM GABA; literature values ref 48; cited from earlier work.

Turning to `CC(=O)[C@H]1CC[C@H]2[C@@H]3CC[C@H]4C[C@H](O)CC[C@]4(C)[C@H]3C(=O)C[C@]12C` [compound 6, alphaxalone], the “oocyte electrophysiology 1 μM, ratio of currents in presence/absence of compound” value is 4.70 ± 1.11.
